The target of the test is T1, Heme oxygenase 1 (HMOX1) (rat (endogenous in PC12)) (UniProt P06762).
T1 sequence: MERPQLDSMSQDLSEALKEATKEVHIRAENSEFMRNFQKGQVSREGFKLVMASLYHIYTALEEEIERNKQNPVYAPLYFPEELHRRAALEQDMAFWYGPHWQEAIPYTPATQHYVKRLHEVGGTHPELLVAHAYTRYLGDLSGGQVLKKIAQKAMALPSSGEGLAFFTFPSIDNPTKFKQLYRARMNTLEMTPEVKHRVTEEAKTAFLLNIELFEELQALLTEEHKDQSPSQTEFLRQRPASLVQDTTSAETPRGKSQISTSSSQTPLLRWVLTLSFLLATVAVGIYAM
Briefly: affinity purification with mass spectrometry; IP from total protein of PC12 cells with specific antibodies and protein A/G-agarose beads, then MS of the immunoprecipitates; HMOX1 as bait.

In publication PMC12623955 one finds binding data, which are given here for 1 substance.

Results are given in words; binding and its absence hold for the method and conditions named. Binding seen in cells or lysates may run through a third protein. Here binding means that the protein was enriched with, or labelled near, the bait; the list need not be complete.

Regarding BNIP3 (rat (endogenous in PC12)), the binding entry is “binds”.
